# Data published in the supplement of paper PMC8728848.
# The list shows a part of the results.
# How the values were obtained:
# Assay in all cases: glycan array binding signal (z-score within array); higher = stronger binding
# Conditions in all cases: glycan notation: IUPAC condensed, linker removed
# [1] = target: Fuc(a1-2)Gal(b1-4)[Fuc(a1-3)]GlcNAc
# How it was run: (§1)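 Glycan array data were curated from 3228 arrays in the Consortium for Functional Glycomics database and kept only where the protein sequence was available. Glycan names were converted to IUPAC-condensed notation, and columns mapping to the same glycan were averaged. The binding signal is a within-array Z-score, averaged across arrays of the same protein sequence at different concentrations or buffers and across linkers. Negative Z-scores can be read as non-binding.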
# [2] = target: Fuc(a1-2)Gal(b1-4)[Fuc(a1-3)]GlcNAc(b1-2)Man(a1-3)[Fuc(a1-2)Gal(b1-4)[Fuc(a1-3)]GlcNAc(b1-2)Man(a1-6)]Man(b1-4)GlcNAc(b1-4)[Fuc(a1-6)]GlcNAc
# How it was run: as §1
# [3] = target: Fuc(a1-2)Gal(b1-4)[Fuc(a1-3)]GlcNAc(b1-2)[Fuc(a1-2)Gal(b1-4)[Fuc(a1-3)]GlcNAc(b1-4)]Man(a1-3)[Fuc(a1-2)Gal(b1-4)[Fuc(a1-3)]GlcNAc(b1-2)Man(a1-6)]Man(b1-4)GlcNAc(b1-4)GlcNAc
# How it was run: as §1
# [4] = target: Fuc(a1-2)Gal(b1-4)[Fuc(a1-3)]GlcNAc(b1-3)Gal(b1-4)[Fuc(a1-3)]GlcNAc
# How it was run: as §1
# [5] = target: Fuc(a1-2)Gal(b1-4)[Fuc(a1-3)]GlcNAc(b1-3)Gal(b1-4)[Fuc(a1-3)]GlcNAc(b1-3)Gal(b1-4)[Fuc(a1-3)]GlcNAc
# How it was run: as §1
# [6] = target: Fuc(a1-2)Gal(b1-4)[Fuc(a1-3)]GlcNAc(b1-3)GalNAc
# How it was run: as §1
# [7] = target: Fuc(a1-2)Gal(b1-4)[Fuc(a1-3)]GlcNAc(b1-3)[Neu5Ac(a2-6)Gal(b1-4)GlcNAc(b1-6)]Gal(b1-4)Glc
# How it was run: as §1
# [8] = target: Fuc(a1-2)Gal3S(b1-4)GlcNAc
# How it was run: as §1
# [9] = target: Fuc(a1-2)Gal6S(b1-3)GlcNAc
# How it was run: as §1
# [10] = target: Fuc(a1-2)Gal6S(b1-3)GlcNAc6S
# How it was run: as §1
# Fuc(a1-2)Gal6S(b1-4)Glc = target: Fuc(a1-2)Gal6S(b1-4)Glc
# How it was run: as §1
# [11] = target: Fuc(a1-2)Gal6S(b1-4)Glc6S
# How it was run: as §1
# Fuc(a1-2)[Gal(a1-3)]Gal = target: Fuc(a1-2)[Gal(a1-3)]Gal
# How it was run: as §1
# [12] = target: Fuc(a1-2)[Gal(a1-3)]Gal(b1-3)GalNAc
# How it was run: as §1
# [13] = target: Fuc(a1-2)[Gal(a1-3)]Gal(b1-3)GalNAc(b1-3)Gal(a1-4)Gal(b1-4)Glc
# How it was run: as §1
# [14] = target: Fuc(a1-2)[Gal(a1-3)]Gal(b1-3)GlcNAc
# How it was run: as §1
# [15] = target: Fuc(a1-2)[Gal(a1-3)]Gal(b1-3)GlcNAc(b1-2)Man(a1-3)[Fuc(a1-2)[Gal(a1-3)]Gal(b1-3)GlcNAc(b1-2)Man(a1-6)]Man(b1-4)GlcNAc(b1-4)GlcNAc
# How it was run: as §1
# [16] = target: Fuc(a1-2)[Gal(a1-3)]Gal(b1-3)GlcNAc(b1-2)Man(a1-3)[Fuc(a1-2)[Gal(a1-3)]Gal(b1-3)GlcNAc(b1-2)Man(a1-6)]Man(b1-4)GlcNAc(b1-4)[Fuc(a1-6)]GlcNAc
# How it was run: as §1
# [17] = target: Fuc(a1-2)[Gal(a1-3)]Gal(b1-3)GlcNAc(b1-3)GalNAc
# How it was run: as §1
# [18] = target: Fuc(a1-2)[Gal(a1-3)]Gal(b1-3)GlcNAc(b1-6)GalNAc
# How it was run: as §1
# [19] = target: Fuc(a1-2)[Gal(a1-3)]Gal(b1-4)Glc
# How it was run: as §1
# [20] = target: Fuc(a1-2)[Gal(a1-3)]Gal(b1-4)GlcNAc
# How it was run: as §1
# [21] = target: Fuc(a1-2)[Gal(a1-3)]Gal(b1-4)GlcNAc(b1-2)Man
# How it was run: as §1
# [22] = target: Fuc(a1-2)[Gal(a1-3)]Gal(b1-4)GlcNAc(b1-2)Man(a1-3)[Fuc(a1-2)[Gal(a1-3)]Gal(b1-4)GlcNAc(b1-2)Man(a1-6)]Man(b1-4)GlcNAc(b1-4)GlcNAc
# How it was run: as §1
# [23] = target: Fuc(a1-2)[Gal(a1-3)]Gal(b1-4)GlcNAc(b1-2)Man(a1-3)[Fuc(a1-2)[Gal(a1-3)]Gal(b1-4)GlcNAc(b1-2)Man(a1-6)]Man(b1-4)GlcNAc(b1-4)[Fuc(a1-6)]GlcNAc
# How it was run: as §1
# [24] = target: Fuc(a1-2)[Gal(a1-3)]Gal(b1-4)GlcNAc(b1-3)GalNAc
# How it was run: as §1
# [25] = target: Fuc(a1-2)[Gal(a1-3)]Gal(b1-4)GlcNAc(b1-3)[Fuc(a1-2)[Gal(a1-3)]Gal(b1-4)GlcNAc(b1-6)]GalNAc
# How it was run: as §1
# [26] = target: Fuc(a1-2)[Gal(a1-3)]Gal(b1-4)GlcNAc(b1-6)GalNAc
# How it was run: as §1
# [27] = target: Fuc(a1-2)[Gal(a1-3)]Gal(b1-4)[Fuc(a1-3)]Glc
# How it was run: as §1
# [28] = target: Fuc(a1-2)[Gal(a1-3)]Gal(b1-4)[Fuc(a1-3)]GlcNAc
# How it was run: as §1
# [29] = target: Fuc(a1-2)[Gal(a1-3)]Gal(b1-4)[Fuc(a1-3)]GlcNAc(b1-3)GalNAc
# How it was run: as §1
# [30] = target: Fuc(a1-2)[Gal(a1-4)]Gal(b1-4)GlcNAc
# How it was run: as §1
# [31] = target: Fuc(a1-2)[GalNAc(a1-3)]Gal
# How it was run: as §1
# [32] = target: Fuc(a1-2)[GalNAc(a1-3)]Gal(b1-3)GalNAc(a1-3)[Fuc(a1-2)]Gal(b1-4)GlcNAc
# How it was run: as §1
# [33] = target: Fuc(a1-2)[GalNAc(a1-3)]Gal(b1-3)GalNAc(b1-3)Gal(a1-4)Gal(b1-4)Glc
# How it was run: as §1
# [34] = target: Fuc(a1-2)[GalNAc(a1-3)]Gal(b1-3)GlcNAc
# How it was run: as §1
# [35] = target: Fuc(a1-2)[GalNAc(a1-3)]Gal(b1-3)GlcNAc(b1-2)Man(a1-3)[Fuc(a1-2)[GalNAc(a1-3)]Gal(b1-3)GlcNAc(b1-2)Man(a1-6)]Man(b1-4)GlcNAc(b1-4)GlcNAc
# How it was run: as §1
# [36] = target: Fuc(a1-2)[GalNAc(a1-3)]Gal(b1-3)GlcNAc(b1-2)Man(a1-3)[Fuc(a1-2)[GalNAc(a1-3)]Gal(b1-3)GlcNAc(b1-2)Man(a1-6)]Man(b1-4)GlcNAc(b1-4)[Fuc(a1-6)]GlcNAc
# How it was run: as §1
binder,measurement,setting,value
"AT3G09350(27) (Arabidopsis thaliana), Q84J81 (protein) MAKDGPNWDGLLKWSLSHADGTRPTRQLSEEDRKWFMEAMQSQTVDVVKRMKEITLVMQTPEQVLVEHGVTPEDIQDLLDELQEHVESIDMANDLHSIGGLVPLLSFLKNSHANIRAKAADVVSTIVQNNPRSQELVMETNALESLLSNFTSDTDIHARTQALGAISSLIRHNKPGVTAFKLANGYAGLRDALASDSVRFQRKALNLLQYLLQEDDSDRSIATGLGFPRVMMHLASSDDAEIREAALRGLLELSREKNDGSSSIDKSDEKLRQLLEERIKGITLMSQEDLETVKEERQLVDLLWSICYNEPSSLREKGLVVLPGEDALPPDVASKLFEPPLRASAANRNATEKKDEPMKLLGP",glycan array binding signal (z-score),[1],-0.03
same,glycan array binding signal (z-score),[2],-0.237
same,glycan array binding signal (z-score),[3],-0.537
same,glycan array binding signal (z-score),[4],-0.529
same,glycan array binding signal (z-score),[5],0.234
same,glycan array binding signal (z-score),[6],-0.134
same,glycan array binding signal (z-score),[7],-0.772
same,glycan array binding signal (z-score),[8],-0.997
same,glycan array binding signal (z-score),[9],-0.161
same,glycan array binding signal (z-score),[10],0.172
same,glycan array binding signal (z-score),Fuc(a1-2)Gal6S(b1-4)Glc,-0.518
same,glycan array binding signal (z-score),[11],-0.315
same,glycan array binding signal (z-score),Fuc(a1-2)[Gal(a1-3)]Gal,1.22
same,glycan array binding signal (z-score),[12],-0.403
same,glycan array binding signal (z-score),[13],-0.597
same,glycan array binding signal (z-score),[14],-0.327
same,glycan array binding signal (z-score),[15],-0.69
same,glycan array binding signal (z-score),[16],0.226
same,glycan array binding signal (z-score),[17],-0.33
same,glycan array binding signal (z-score),[18],-0.699
same,glycan array binding signal (z-score),[19],2.16
same,glycan array binding signal (z-score),[20],0.614
same,glycan array binding signal (z-score),[21],-0.155
same,glycan array binding signal (z-score),[22],-0.513
same,glycan array binding signal (z-score),[23],-0.574
same,glycan array binding signal (z-score),[24],0.027
same,glycan array binding signal (z-score),[25],0.43
same,glycan array binding signal (z-score),[26],-0.12
same,glycan array binding signal (z-score),[27],-0.726
same,glycan array binding signal (z-score),[28],-0.094
same,glycan array binding signal (z-score),[29],-0.362
same,glycan array binding signal (z-score),[30],1.74
same,glycan array binding signal (z-score),[31],-0.506
same,glycan array binding signal (z-score),[32],-0.375
same,glycan array binding signal (z-score),[33],0.388
same,glycan array binding signal (z-score),[34],-0.419
same,glycan array binding signal (z-score),[35],-0.446
same,glycan array binding signal (z-score),[36],-0.677

# Another view of part of the listing above:
binder | measurement | setting | value
AT3G09350(27) (Arabidopsis thaliana), Q84J81 (protein) MAKDGPNWDGLLKWSLSHADGTRPTRQLSEEDRKWFMEAMQSQTVDVVKRMKEITLVMQTPEQVLVEHGVTPEDIQDLLDELQEHVESIDMANDLHSIGGLVPLLSFLKNSHANIRAKAADVVSTIVQNNPRSQELVMETNALESLLSNFTSDTDIHARTQALGAISSLIRHNKPGVTAFKLANGYAGLRDALASDSVRFQRKALNLLQYLLQEDDSDRSIATGLGFPRVMMHLASSDDAEIREAALRGLLELSREKNDGSSSIDKSDEKLRQLLEERIKGITLMSQEDLETVKEERQLVDLLWSICYNEPSSLREKGLVVLPGEDALPPDVASKLFEPPLRASAANRNATEKKDEPMKLLGP | glycan array binding signal (z-score) | [11] | -0.315
same | glycan array binding signal (z-score) | Fuc(a1-2)[Gal(a1-3)]Gal | 1.22
